# The whole screen tested about 300,000 compounds, of which about 5,400 (1.8%) were called active. The shares of active, inactive and inconclusive entries below differ from those in the screen. Calls come from the whole dose curve; tested in HEK293 cells. Potencies of inconclusive entries are doubtful fits and often do not repeat.
# Test: qHTS for inhibitors of binding or entry into cells for Marburg Virus
# Conditions: Marburg virus pseudotyped entry inhibition, cell reporter; activity change, negative = inhibition: at 37.8 µM (top of the series) unless noted
# % is set by controls: 0 for no effect and ±100 for the full control effect; potency is the fitted concentration of half-maximal effect.
SMILES,Potency,"activity change, negative = inhibition"
CCOC(=O)N1CCc2c(sc3ncn(C)c(=O)c23)C1,"inconclusive: 0.631 µM [inhibitor, full curve, poor fit]",
COc1ccc(N/C=C/C(=O)c2ccc(C)cc2)c([N+](=O)[O-])c1,"inconclusive: 31.6 µM [inhibitor, single point]",
CCc1cccc(NC(=O)CSc2nccn2C)c1,"inconclusive: 11.2 µM [activator, partial curve, poor fit]",
COc1cc(/C=N/NC(=O)c2ccc3nc[nH]c3c2)ccc1O,"inconclusive: 35.5 µM [activator, single point]",
CC(=O)Cc1nsc(NC(=O)c2ccc(-c3ccc(F)cc3)o2)n1,,inactive: 0.579% [at 46.1 µM]
COc1c(Cl)cc(Cl)cc1C(=O)Nc1cccc2cccnc12,"inconclusive: 2.24 µM [activator, partial curve, poor fit]",
CCOC(=O)c1sc(=NC(=O)c2ccc(C)cc2)n(C)c1C,"inconclusive: 6.31 µM [activator, single point]",
O=c1c2cccc3c2c(nn1-c1ccccc1)-c1ccccc1-3,,inactive: -25.1%
COc1ccc(C(=O)OCC(=O)Nc2cccc(S(=O)(=O)NC3=NCCCCC3)c2)cc1[N+](=O)[O-],"inconclusive: 1.41 µM [activator, partial curve, poor fit]",
CS(=O)(=O)Nc1ccc(C(=O)Nc2ccc3c(c2)OCO3)cc1,"inconclusive: 3.55 µM [inhibitor, single point]",
COc1ccc2[nH]c(N=Nc3ccccc3C)c(O)c2c1,,inactive: 28.5%
CCN(C(=O)c1cc2c(=O)[nH]c3ccc(C)cc3c2s1)c1ccc(OC)cc1,"inconclusive: 6.31 µM [inhibitor, single point]",
COc1ccc(C)cc1NC(=O)c1sc2ncnc(N3CCN(c4ccccn4)CC3)c2c1C,,inactive: 5.92% [at 46.1 µM]
O=C(CSc1nc2c(c(=O)[nH]1)CCC2)Nc1cc(C(F)(F)F)ccc1Cl,,inactive: -1.13% [at 46.1 µM]
CSc1ccc(-c2nc3cc(C)ccn3c2Nc2ccc(C)cc2)cc1,,inactive: 5.04% [at 46.1 µM]
Cc1cccc(NC(=O)Cn2cc(C(=O)c3ccccc3)c3ccccc32)c1,"inconclusive: 10 µM [inhibitor, partial curve, poor fit]",
Cc1c(Br)c([N+](=O)[O-])nn1CC(=O)N1CCc2ccccc2C1,,inactive: -2.65%
CCc1nc(SCc2nc3ccccc3[nH]2)c2oc3ccccc3c2n1,"inconclusive: 20.6 µM [inhibitor, single point]",
COc1ccc(C(c2nnnn2CC2CCCO2)N2CCC(C(N)=O)CC2)cc1 (configuration not stated),"inconclusive: 35.5 µM [activator, single point]",
O=C(c1ccc(Br)cc1)c1cn[nH]c1-c1ccccc1O,"inconclusive: 2.82 µM [activator, single point]",
NNc1nc2ccccc2c(=O)n1Cc1ccccc1,"inconclusive: 35.5 µM [activator, single point]",
CCN(CCC(=O)O)c1ccccc1,,inactive: 15%
CCCN(CCC)CCNC(=O)C1CC(=O)N(c2ccc(OC)cc2)C1c1ccc(OC)cc1 (configuration not stated),"inconclusive: 29.1 µM [inhibitor, partial curve, poor fit]",
O=C(N/N=C/c1ccccc1OC(F)F)c1cc(-c2ccncc2)nc2ccccc12,"inconclusive: 0.794 µM [inhibitor, full curve, poor fit]",

SMILES,Potency,"activity change, negative = inhibition"
Cc1cc(C(=O)CSc2ccc(Cl)cc2)cc(C)c1OC(=S)N(C)C,"inconclusive: 17.8 µM [activator, partial curve, poor fit]",
O=C(N/N=C/C(Br)=C\c1ccccc1)c1n[nH]c2c1CCC2,"inconclusive: 3.66 µM [inhibitor, single point]",
Cc1ccccc1-n1c(C)cc(/C=N/NC(=O)c2ccncc2)c1C,,inactive: 16.9%
Cc1cc(SCC(=O)c2cccs2)nc2ccccc12,,inactive: 11%
O=C(/C=C/Nc1ccccc1Oc1ccccc1)c1ccco1,"inconclusive: 28.2 µM [inhibitor, single point]",
O=C(Nc1ccc2ccccc2c1)c1cn(-c2ccccc2)nc1-c1cccs1,"inconclusive: 16.4 µM [inhibitor, single point]",
CC(c1nnc(Sc2nnnn2-c2ccccc2)n1-c1ccc(F)cc1)N(C)C (configuration not stated),,inactive: 5.16%
C#CCCCO/N=C1/C[C@@H](O)[C@@H](O)[C@@H]2[C@@H]3C(=O)N(Cc4ccccc4)C(=O)[C@H]3CC[C@H]12,,inactive: 11% [at 14.2 µM]
Cc1nc(NC(=O)c2ccccc2)sc1-c1csc(N)n1,"inconclusive: 2.31 µM [inhibitor, partial curve, poor fit]",
COC(=O)CCCC(=O)N1CCC(n2nccc2NC(=O)CCOc2ccccc2)CC1,,inactive: 19.8%
Cc1ccc(C(=O)Nc2cccc(C(=O)NCc3ccco3)c2)cc1,"inconclusive: 3.98 µM [inhibitor, single point]",
O=C(c1cc(-c2ccc(O)cc2)on1)N1CCOCC1,"inconclusive: 10 µM [inhibitor, partial curve]",
CCOC(=O)C(NC(=O)CC)(Nc1ccc(S(=O)(=O)Nc2ncccn2)cc1)C(F)(F)F (configuration not stated),"inconclusive: 0.231 µM [inhibitor, partial curve, poor fit]",
COc1ccc(/C=N/Nc2cc(=O)n(C)c(=O)n2C)cc1OC,"inconclusive: 29.1 µM [activator, partial curve, poor fit]",
O=C(O)c1ccc(Oc2ccc(C(F)(F)F)cn2)cc1,"inconclusive: 35.5 µM [activator, single point]",
COc1ccc(CNC(=O)C(c2ccc(C)o2)N(C(=O)c2csnn2)c2ccc(C(C)C)cc2)cc1 (configuration not stated),"inconclusive: 14.1 µM [inhibitor, partial curve, poor fit]",
O=C(Cn1nc([N+](=O)[O-])nc1Br)NC(c1ccccc1)c1ccccc1,"inconclusive: 10 µM [inhibitor, partial curve, poor fit]",
Cc1ccc2c(COC(=O)c3ccccc3Cl)cc(=O)oc2c1,"inconclusive: 1 µM [activator, partial curve, poor fit]",
COc1ccc(NC(=S)NCCSc2ccc(Cl)cc2)c(OC)c1,"inconclusive: 14.1 µM [inhibitor, partial curve, poor fit]",
COc1ccc(-c2coc3cc(OC)cc(O)c3c2=O)cc1,,inactive: -10.9%
COc1ccc(C2/C(=C(/O)c3ccccc3)C(=O)C(=O)N2CO)cc1 (configuration not stated),,inactive: -6.6% [at 46.1 µM]
CC(C)(C)C(=O)Nc1ccccc1C(=O)Nc1ccccn1,,inactive: -0.879%
C=CCN(c1ccccc1)S(=O)(=O)c1cccc(C(=O)O)c1,,inactive: 13.5%
CCOC(=O)N1CCN(Cc2cc(=O)oc3ccc4ccccc4c23)CC1,,inactive: -17.1%

# Among those listed so far, 4 have a nitro group on carbon.
SMILES,Potency,"activity change, negative = inhibition"
COc1ccc(N/C=C/C(=O)c2ccc(C)cc2)c([N+](=O)[O-])c1,"inconclusive: 31.6 µM [inhibitor, single point]",
COc1ccc(C(=O)OCC(=O)Nc2cccc(S(=O)(=O)NC3=NCCCCC3)c2)cc1[N+](=O)[O-],"inconclusive: 1.41 µM [activator, partial curve, poor fit]",
Cc1c(Br)c([N+](=O)[O-])nn1CC(=O)N1CCc2ccccc2C1,,inactive: -2.65%
O=C(Cn1nc([N+](=O)[O-])nc1Br)NC(c1ccccc1)c1ccccc1,"inconclusive: 10 µM [inhibitor, partial curve, poor fit]",

# (further entries)

SMILES,Potency,"activity change, negative = inhibition"
CNS(=O)(=O)c1cccc(C(=O)OCc2cc(C(C)=O)ccc2OC)c1,,inactive: -16.1% [at 14.2 µM]
O=C(NCCC1=CCCCC1)C1CCC(CNc2nc(=S)[nH]c3ccccc23)CC1 (configuration not stated),,inactive: -6.48% [at 46.1 µM]
Cc1ccc(/C=C/C(=O)N2CC(C)CC(C)C2)o1 (configuration not stated),,inactive: -10.2%
CC(=O)N(C)c1ccc(NC(=O)Cc2cccs2)cc1,,inactive: 9.04%
CCc1nnc(NC(=O)c2nc(SCc3ccc(F)cc3)ncc2Cl)s1,,inactive: -17.3% [at 46.1 µM]
Cc1nn(-c2ccccc2)c2nc(-c3ccccc3)cc(C(=O)N3CCOCC3)c12,"inconclusive: 15.8 µM [inhibitor, single point]",
Cc1nn(-c2ccc(Cl)nn2)c(=O)c2ccccc12,"inconclusive: 2.51 µM [activator, full curve, poor fit]",
CN1CCN(C(=S)Nc2ccccc2Cl)CC1,"inconclusive: 0.562 µM [activator, full curve, poor fit]",
COc1ccc(Cc2c(N)nc(C)nc2N)cc1,,inactive: -8.2% [at 46.1 µM]
O=C(COc1ccc2ccc(=O)oc2c1)N1CCc2ccccc21,"inconclusive: 10 µM [activator, partial curve, poor fit]",
O=C(c1cccc(-n2cnnn2)c1)N1CC=C(c2ccccc2)CC1,"inconclusive: 29.1 µM [inhibitor, single point]",
CCCC(=O)Nc1ccc(-c2ccc(NC(=O)CCC)cc2)cc1,,inactive: 0.587%
COc1ccccc1N1CCN(C[C@@H](O)COc2cccc3ccccc23)CC1,"inconclusive: 29.1 µM [inhibitor, single point]",
Cc1ccc2c(CSc3nc4ccccc4c(=O)n3CCCO)cc(=O)oc2c1C,"inconclusive: 11.2 µM [inhibitor, single point]",
O=C(COc1ccc(Cl)cc1)N(Cc1ccco1)c1ccccn1,,inactive: 2.36% [at 46.1 µM]
COc1ccc(NC(=O)CN(C)C(=O)/C=C/c2ccc(OCc3ccccc3)cc2)cc1,"inconclusive: 11.2 µM [inhibitor, partial curve, poor fit]",
C=C1C(=O)OC2C=C(CO)CCC=C(CO)CC(OC(=O)C(C)C)C12 (configuration not stated),"inconclusive: 25.1 µM [inhibitor, single point]",
COCc1cc(=O)[nH]c(-c2ccc(C(F)(F)F)cc2)n1,"inconclusive: 35.5 µM [activator, single point]",
CCC(=O)Nc1ccccc1-c1nc2ccccc2[nH]c1=O,,inactive: 9.22%
CN1C(=O)N(C)C2(c3ccccc3)NC(=O)NC12c1ccccc1 (configuration not stated),,inactive: 3.61%
O=C(/C=C/c1cccs1)Nc1scc(-c2ccccc2)c1C(=O)O,"inconclusive: 12.6 µM [inhibitor, partial curve, poor fit]",
COc1ccc(CCNC(=O)COc2ccc(N(C)S(=O)(=O)c3ccc(Cl)cc3)cc2)cc1,"inconclusive: 11.2 µM [inhibitor, partial curve]",
O=C(OC1CCN(CCCl)CC1)C(c1ccccc1)c1ccccc1,active: 10 µM,
Cc1cc(SCC(=O)OC/C(O)=C(\C#N)c2nc3ccccc3[nH]2)c(C)cc1Br,"inconclusive: 17.8 µM [inhibitor, partial curve, poor fit]",

# Source: PubChem BioAssay AID540276 (National Center for Advancing Translational Sciences (NCATS), 2011)
